Test results from article PMC9278858.
These are yes or no findings as the source states them, for the method shown. Binding seen in cells or lysates may run through a third protein. A yes stands for co-enrichment or nearness to the bait. Other partners may have been found. For some of these results: No binding means not detected with the bait. For some of these results: Where a sequence is shown, tags or fusion partners need not be part of it.

T1: TAP-Sen1ΔNTD (Sen1 lacking the N-terminal domain, TAP-tagged, expressed from pGAL1) (S. cerevisiae) (UniProt Q00416)
T1 sequence: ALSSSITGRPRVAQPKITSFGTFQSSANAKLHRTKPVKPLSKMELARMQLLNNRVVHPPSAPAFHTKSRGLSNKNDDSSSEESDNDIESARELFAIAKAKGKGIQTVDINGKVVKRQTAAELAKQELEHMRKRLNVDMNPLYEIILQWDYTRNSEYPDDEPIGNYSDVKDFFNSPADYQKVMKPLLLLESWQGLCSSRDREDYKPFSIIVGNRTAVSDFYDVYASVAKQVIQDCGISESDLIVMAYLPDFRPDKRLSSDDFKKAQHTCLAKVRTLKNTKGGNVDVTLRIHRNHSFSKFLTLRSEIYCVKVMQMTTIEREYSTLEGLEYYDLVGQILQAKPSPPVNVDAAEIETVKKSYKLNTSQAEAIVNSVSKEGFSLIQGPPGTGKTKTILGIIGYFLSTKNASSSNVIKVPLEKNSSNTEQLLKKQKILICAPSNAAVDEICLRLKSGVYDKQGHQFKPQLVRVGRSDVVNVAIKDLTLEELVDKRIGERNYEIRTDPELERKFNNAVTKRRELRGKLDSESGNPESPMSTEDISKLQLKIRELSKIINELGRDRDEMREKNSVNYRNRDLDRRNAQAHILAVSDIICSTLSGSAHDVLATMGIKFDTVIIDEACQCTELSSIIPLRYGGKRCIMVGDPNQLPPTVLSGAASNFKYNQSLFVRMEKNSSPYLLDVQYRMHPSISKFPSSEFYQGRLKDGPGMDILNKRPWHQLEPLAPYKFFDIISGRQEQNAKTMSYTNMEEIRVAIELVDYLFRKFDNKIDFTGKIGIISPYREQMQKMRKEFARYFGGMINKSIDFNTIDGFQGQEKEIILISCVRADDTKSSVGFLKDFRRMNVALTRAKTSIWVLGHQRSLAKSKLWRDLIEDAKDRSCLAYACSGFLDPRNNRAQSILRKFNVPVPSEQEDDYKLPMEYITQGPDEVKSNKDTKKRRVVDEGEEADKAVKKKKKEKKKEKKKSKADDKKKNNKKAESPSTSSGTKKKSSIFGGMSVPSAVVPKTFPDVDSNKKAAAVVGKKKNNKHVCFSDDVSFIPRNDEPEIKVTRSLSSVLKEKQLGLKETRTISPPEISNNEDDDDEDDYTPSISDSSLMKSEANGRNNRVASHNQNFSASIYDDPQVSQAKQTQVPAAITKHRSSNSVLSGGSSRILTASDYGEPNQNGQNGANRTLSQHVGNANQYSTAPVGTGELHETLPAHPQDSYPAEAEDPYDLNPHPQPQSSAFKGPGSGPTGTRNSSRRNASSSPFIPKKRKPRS

T2: TAP-NTD (isolated N-terminal domain of Sen1, TAP-tagged, expressed from pGAL1) (S. cerevisiae) (UniProt Q00416)
T2 sequence: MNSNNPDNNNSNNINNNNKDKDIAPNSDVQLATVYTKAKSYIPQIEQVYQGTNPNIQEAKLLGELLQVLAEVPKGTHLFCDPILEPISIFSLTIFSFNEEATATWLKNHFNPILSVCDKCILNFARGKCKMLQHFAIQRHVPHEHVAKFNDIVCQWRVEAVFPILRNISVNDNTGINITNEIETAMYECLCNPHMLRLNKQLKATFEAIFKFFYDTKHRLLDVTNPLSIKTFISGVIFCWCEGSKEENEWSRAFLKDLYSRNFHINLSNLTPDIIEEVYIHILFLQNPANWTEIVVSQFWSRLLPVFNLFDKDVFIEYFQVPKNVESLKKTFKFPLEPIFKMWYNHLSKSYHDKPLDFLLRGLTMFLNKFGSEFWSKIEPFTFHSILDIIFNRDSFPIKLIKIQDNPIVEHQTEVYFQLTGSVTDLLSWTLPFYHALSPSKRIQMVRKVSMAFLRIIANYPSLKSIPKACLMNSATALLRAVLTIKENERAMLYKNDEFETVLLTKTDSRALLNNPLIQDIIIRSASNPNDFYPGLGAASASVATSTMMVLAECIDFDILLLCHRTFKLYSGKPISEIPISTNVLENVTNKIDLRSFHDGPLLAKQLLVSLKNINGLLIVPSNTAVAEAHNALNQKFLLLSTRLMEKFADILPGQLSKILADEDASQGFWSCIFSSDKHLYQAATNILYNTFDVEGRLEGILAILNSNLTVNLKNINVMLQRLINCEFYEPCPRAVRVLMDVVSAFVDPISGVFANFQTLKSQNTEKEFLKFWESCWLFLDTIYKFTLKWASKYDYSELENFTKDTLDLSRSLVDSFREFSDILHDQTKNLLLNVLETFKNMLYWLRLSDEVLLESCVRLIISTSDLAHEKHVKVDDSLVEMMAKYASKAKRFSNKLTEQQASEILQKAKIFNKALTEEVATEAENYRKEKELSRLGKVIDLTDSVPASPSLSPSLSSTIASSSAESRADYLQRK


Columns and labels:
[1] = target: Sen1-TAP (wild-type Sen1 fused to a TAP tag) (S. cerevisiae) (UniProt Q00416); test: affinity purification with mass spectrometry; Sen1-TAP or Sen1-3–TAP as bait; yeast lysates; untagged control
[2] = target: TAP-Sen1 (full-length Sen1 fused to a tandem affinity purification tag, expressed from pGAL1) (S. cerevisiae) (UniProt Q00416); test: affinity purification with mass spectrometry; TAP-tagged Sen1 versions (full length, ΔNTD, NTD) overexpressed from pGAL1 as baits; yeast lysates in 10 mM sodium phosphate pH 7.5, 200 mM sodium acetate, 0.25% NP-40, treated with RNase A; IgG Sepharose; elution by TEV cleavage; untagged control
[3] = target: T1, TAP-Sen1ΔNTD (Sen1 lacking the N-terminal domain, TAP-tagged, expressed from pGAL1) (S. cerevisiae); test: as above
[4] = target: T2, TAP-NTD (isolated N-terminal domain of Sen1, TAP-tagged, expressed from pGAL1) (S. cerevisiae); test: as above

Row | Binder | binding [1] | binding [2] | binding [3] | binding [4]
1 | Rpc11 (protein, UniProt Q04307 1-110) MLSFCPSCNNMLLITSGDSGVYTLACRSCPYEFPIEGIEIYDRKKLPRKEVDDVLGGGWDNVDQTKTQCPNYDTCGGESAYFFQLQIRSADEPMTTFYKCVNCGHRWKEN | binds | binds | no binding | binds
2 | Rpc17 (protein, UniProt P47076 1-161) MKVLEERNAFLSDYEVLKFLTDLEKKHLWDQKSLAALKKSRSKGKQNRPYNHPELQGITRNVVNYLSINKNFINQEDEGEERESSGAKDAEKSGISKMSDESFAELMTKLNSFKLFKAEKLQIVNQLPANMVHLYSIVEECDARFDEKTIEEMLEIISGYA | binds | binds | no binding | binds

More lines, now with the values ahead:

Row | binding [1] | binding [2] | binding [3] | binding [4] | Binder
3 | binds | binds | no binding | binds | Rpc160 (protein, UniProt P04051 1-1460) MKEVVVSETPKRIKGLEFSALSAADIVAQSEVEVSTRDLFDLEKDRAPKANGALDPKMGVSSSSLECATCHGNLASCHGHFGHLKLALPVFHIGYFKATIQILQGICKNCSAILLSETDKRQFLHELRRPGVDNLRRMGILKKILDQCKKQRRCLHCGALNGVVKKAAAGAGSAALKIIHDTFRWVGKKSAPEKDIWVGEWKEVLAHNPELERYVKRCMDDLNPLKTLNLFKQIKSADCELLGIDATVPSGRPETYIWRYLPAPPVCIRPSVMMQDSPASNEDDLTVKLTEIVWTSSLIKAGLDKGISINNMMEHWDYLQLTVAMYINSDSVNPAMLPGSSNGGGKVKPIRGFCQRLKGKQGRFRGNLSGKRVDFSGRTVISPDPNLSIDEVAVPDRVAKVLTYPEKVTRYNRHKLQELIVNGPNVHPGANYLLKRNEDARRNLRYGDRMKLAKNLQIGDVVERHLEDGDVVLFNRQPSLHRLSILSHYAKIRPWRTFRLNECVCTPYNADFDGDEMNLHVPQTEEARAEAINLMGVKNNLLTPKSGEPIIAATQDFITGSYLISHKDSFYDRATLTQLLSMMSDGIEHFDIPPPAIMKPYYLWTGKQVFSLLIKPNHNSPVVINLDAKNKVFVPPKSKSLPNEMSQNDGFVIIRGSQILSGVMDKSVLGDGKKHSVFYTILRDYGPQEAANAMNRMAKLCARFLGNRGFSIGINDVTPADDLKQKKEELVEIAYHKCDELITLFNKGELETQPGCNEEQTLEAKIGGLLSKVREEVGDVCINELDNWNAPLIMATCGSKGSTLNVSQMVAVVGQQIISGNRVPDGFQDRSLPHFPKNSKTPQSKGFVRNSFFSGLSPPEFLFHAISGREGLVDTAVKTAETGYMSRRLMKSLEDLSCQYDNTVRTSANGIVQFTYGGDGLDPLEMEGNAQPVNFNRSWDHAYNITFNNQDKGLLPYAIMETANEILGPLEERLVRYDNSGCLVKREDLNKAEYVDQYDAERDFYHSLREYINGKATALANLRKSRGMLGLLEPPAKELQGIDPDETVPDNVKTSVSQLYRISEKSVRKFLEIALFKYRKARLEPGTAIGAIGAQSIGEPGTQMTLKTFHFAGVASMNVTLGVPRIKEIINASKVISTPIINAVLVNDNDERAARVVKGRVEKTLLSDVAFYVQDVYKDNLSFIQVRIDLGTIDKLQLELTIEDIAVAITRASKLKIQASDVNIIGKDRIAINVFPEGYKAKSISTSAKEPSENDVFYRMQQLRRALPDVVVKGLPDISRAVINIRDDGKRELLVEGYGLRDVMCTDGVIGSRTTTNHVLEVFSVLGIEAARYSIIREINYTMSNHGMSVDPRHIQLLGDVMTYKGEVLGITRFGLSKMRDSVLQLASFEKTTDHLFDAAFYMKKDAVEGVSECIILGQTMSIGTGSFKVVKGTNISEKDLVPKRCLFESLSNEAALKAN
4 | binds | binds | no binding | binds | Rpc31 (protein, UniProt P17890 1-251) MSSYRGGSRGGGSNYMSNLPFGLGYGDVGKNHITEFPSIPLPINGPITNKERSLAVKYINFGKTVKDGPFYTGSMSLIIDQQENSKSGKRKPNIILDEDDTNDGIERYSDKYLKKRKIGISIDDHPYNLNLFPNELYNVMGINKKKLLAISKFNNADDVFTGTGLQDENIGLSMLAKLKELAEDVDDASTGDGAAKGSKTGEGEDDDLADDDFEEDEDEEDDDDYNAEKYFNNGDDDDYGDEEDPNEEAAF
